Experimental data: PubChem BioAssay AID1259308 (NCATS, 2017)

- Assay: 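Genes whose loss raises luciferase production in HEK293 cells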 (primary screen)
- Cell system: human HEK293 embryonic kidney cells stably expressing firefly luciferase (HEK-CMV-Luc2-Hygro)
- Reagents: single siRNA against human genes, 0.8 pmol siRNA per well
- Timing: 72 h
- Detection: 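Luciferase light (ONE-Glo) measured on one replicate plate set and viability (CellTiter-Glo) on the other, scaled to a negative control siRNA, with robust z-scores and luciferase per cell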
- Direction: total luciferase, z-score and total luciferase, % of control: higher = more reporter protein produced; luciferase per cell, z-score: higher = more reporter output per viable cell; viable cells, % of control: higher = more viable cells
- Rule for the call: 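Active when the median/MAD z-score for overall luciferase is greater than 3; a gene was taken forward for validation with new siRNAs if at least two of its three siRNAs passed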
- Calls: active = raised luciferase; inactive = no rise
This is one part, drawn at random, of about 59,000 reagents. About 1,510 of all reagents (2.6%) count as active. 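Calls use total luciferase alone and ignore viability, so some active siRNAs may act by altering cell number.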 The numbers tell different reagents against one gene apart.

| gene symbol | reagent | total luciferase, z-score | total luciferase, % of control | luciferase per cell, z-score | viable cells, % of control | outcome |
| --- | --- | --- | --- | --- | --- | --- |
| KDM5C (lysine demethylase 5C) | 1 | -0.799 | 66 | 0.0653 | 72.5 | inactive |
| KDM5C (lysine demethylase 5C) | 2 | 0.398 | 89.8 | 0.396 | 90.4 | inactive |
| KDM5C (lysine demethylase 5C) | 3 | 0.387 | 89.6 | 0.937 | 78.2 | inactive |
| MUC16 (mucin 16, cell surface associated) | 1 | -1.46 | 52.8 | -0.557 | 68.3 | inactive |
| MUC16 (mucin 16, cell surface associated) | 2 | 2.6 | 134 | 3.02 | 67.5 | inactive |
| MUC16 (mucin 16, cell surface associated) | 3 | -1.3 | 55.9 | -1.31 | 88.2 | inactive |
| RMDN3 (regulator of microtubule dynamics 3) | 1 | 0.163 | 85.1 | -0.204 | 100 | inactive |
| RMDN3 (regulator of microtubule dynamics 3) | 2 | 0.6 | 93.8 | 0.71 | 87 | inactive |
| RMDN3 (regulator of microtubule dynamics 3) | 3 | -1.92 | 43.8 | -1.88 | 80.2 | inactive |
| CYGB (cytoglobin) | 1 | 1.35 | 109 | 1.21 | 88.4 | inactive |
| CYGB (cytoglobin) | 2 | 0.77 | 97.2 | 0.937 | 84.9 | inactive |
| CYGB (cytoglobin) | 3 | 0.0515 | 82.9 | -0.492 | 105 | inactive |
| TRPM3 | 1 | -1.43 | 53.5 | -1.62 | 91.8 | inactive |
| TRPM3 | 2 | -0.396 | 74 | -0.912 | 105 | inactive |
| TRPM3 | 3 | 2.73 | 136 | 4.53 | 46.1 | inactive |
| TMEM169 (transmembrane protein 169) | 1 | -1.78 | 46.6 | -2.44 | 99 | inactive |
| TMEM169 (transmembrane protein 169) | 2 | 1.72 | 116 | 0.825 | 104 | inactive |
| TMEM169 (transmembrane protein 169) | 3 | -0.777 | 66.4 | -0.749 | 90.4 | inactive |
| WDPCP (WD repeat containing planar cell polarity effector) | 1 | 3.73 | 156 | 2.18 | 98.2 | active |
| WDPCP (WD repeat containing planar cell polarity effector) | 2 | -1.06 | 60.9 | -0.344 | 74.5 | inactive |
| WDPCP (WD repeat containing planar cell polarity effector) | 3 | -0.766 | 66.6 | -0.518 | 85.4 | inactive |
| KSR1 (kinase suppressor of ras 1) | 1 | -0.0892 | 80.1 | -0.28 | 96.4 | inactive |
| KSR1 (kinase suppressor of ras 1) | 2 | -1.86 | 44.9 | -1.43 | 73 | inactive |
| KSR1 (kinase suppressor of ras 1) | 3 | -0.738 | 67.2 | -0.441 | 84.3 | inactive |
| ZNRF4 (zinc and ring finger 4) | 1 | -2.58 | 30.6 | -3.31 | 81.8 | inactive |
| ZNRF4 (zinc and ring finger 4) | 2 | -0.736 | 67.2 | -1.44 | 110 | inactive |
| ZNRF4 (zinc and ring finger 4) | 3 | 4.45 | 170 | 2.83 | 90.3 | active |
| DOP1B (DOP1 leucine zipper like protein B) | 1 | 0.644 | 94.7 | 0.0831 | 104 | inactive |
| DOP1B (DOP1 leucine zipper like protein B) | 2 | 0.162 | 85.1 | 0.952 | 74 | inactive |
| DOP1B (DOP1 leucine zipper like protein B) | 3 | -0.515 | 71.6 | -0.88 | 101 | inactive |
| RBM4B (RNA binding motif protein 4B) | 1 | 0.0375 | 82.6 | 0.541 | 80.1 | inactive |
| RBM4B (RNA binding motif protein 4B) | 2 | -0.271 | 76.5 | 0.00957 | 85.3 | inactive |
| RBM4B (RNA binding motif protein 4B) | 3 | -0.684 | 68.3 | 0.472 | 67.4 | inactive |
| DCDC2B (doublecortin domain containing 2B) | 1 | 0.34 | 88.7 | 1.42 | 68.2 | inactive |
| DCDC2B (doublecortin domain containing 2B) | 2 | -0.453 | 72.9 | -0.139 | 84.5 | inactive |
| DCDC2B (doublecortin domain containing 2B) | 3 | -0.344 | 75 | -0.625 | 98.9 | inactive |
| HDHD5 (haloacid dehalogenase like hydrolase domain containing 5) | 1 | 0.938 | 101 | 0.689 | 93.7 | inactive |
| HDHD5 (haloacid dehalogenase like hydrolase domain containing 5) | 2 | -0.704 | 67.9 | -0.714 | 91.6 | inactive |
| HDHD5 (haloacid dehalogenase like hydrolase domain containing 5) | 3 | 0.383 | 89.5 | 0.184 | 95.3 | inactive |
| ATP6V0B (ATPase H+ transporting V0 subunit b) | 1 | -1.17 | 58.7 | -1.33 | 92.9 | inactive |
| ATP6V0B (ATPase H+ transporting V0 subunit b) | 2 | -0.265 | 76.6 | 0.508 | 74.9 | inactive |
| ATP6V0B (ATPase H+ transporting V0 subunit b) | 3 | -1.36 | 54.9 | -0.444 | 69 | inactive |
| FUOM (fucose mutarotase) | 1 | -0.502 | 71.9 | -0.549 | 92.8 | inactive |
| FUOM (fucose mutarotase) | 2 | 1.42 | 110 | 2.02 | 72.3 | inactive |
| FUOM (fucose mutarotase) | 3 | 0.228 | 86.4 | 0.0843 | 94.5 | inactive |
| FKBPL (FKBP prolyl isomerase like) | 1 | -1.44 | 53.2 | -1.31 | 84 | inactive |
| FKBPL (FKBP prolyl isomerase like) | 2 | 0.259 | 87 | 1.92 | 58.6 | inactive |
| FKBPL (FKBP prolyl isomerase like) | 3 | 0.825 | 98.3 | 0.89 | 86.9 | inactive |
| DORIP1 (dopamine receptor interacting protein 1) | 1 | 0.146 | 84.8 | -0.494 | 108 | inactive |
| DORIP1 (dopamine receptor interacting protein 1) | 2 | -0.0408 | 81.1 | 0.522 | 79 | inactive |
| DORIP1 (dopamine receptor interacting protein 1) | 3 | 0.815 | 98.1 | -0.254 | 117 | inactive |
| CIZ1 (CDKN1A interacting zinc finger protein 1) | 1 | -0.0262 | 81.4 | 1.21 | 66.1 | inactive |
| CIZ1 (CDKN1A interacting zinc finger protein 1) | 2 | 0.634 | 94.5 | 1.81 | 65.6 | inactive |
| CIZ1 (CDKN1A interacting zinc finger protein 1) | 3 | -0.301 | 75.9 | 0.668 | 71.1 | inactive |
| ABCC10 (ATP binding cassette subfamily C member 10) | 1 | -0.138 | 79.1 | 0.197 | 84 | inactive |
| ABCC10 (ATP binding cassette subfamily C member 10) | 2 | -0.0125 | 81.6 | 0.309 | 84.1 | inactive |
| ABCC10 (ATP binding cassette subfamily C member 10) | 3 | 0.115 | 84.2 | -0.264 | 101 | inactive |
| YWHAQ | 1 | 0.254 | 86.9 | 2.25 | 53.8 | inactive |
| YWHAQ | 2 | -0.624 | 69.5 | -0.703 | 93.4 | inactive |
| YWHAQ | 3 | 1.76 | 117 | 1.16 | 96.2 | inactive |
| LINC01124 (long independently transcribed non-coding RNA 1124) | 1 | 0.112 | 84.1 | -0.172 | 98.4 | inactive |
| LINC01124 (long independently transcribed non-coding RNA 1124) | 2 | -0.161 | 78.7 | -0.433 | 98.5 | inactive |
| LINC01124 (long independently transcribed non-coding RNA 1124) | 3 | -1.05 | 60.9 | -1.31 | 96.1 | inactive |
| NEDD8 (NEDD8 ubiquitin like modifier) | 1 | -0.606 | 69.8 | 0.107 | 75.9 | inactive |
| NEDD8 (NEDD8 ubiquitin like modifier) | 2 | -0.575 | 70.5 | 0.281 | 73.1 | inactive |
| NEDD8 (NEDD8 ubiquitin like modifier) | 3 | 0.263 | 87.1 | 0.566 | 83.9 | inactive |
| CNGA2 (cyclic nucleotide gated channel subunit alpha 2) | 1 | -2.88 | 24.6 | -3.79 | 74.6 | inactive |
| CNGA2 (cyclic nucleotide gated channel subunit alpha 2) | 2 | 0.111 | 84.1 | -0.207 | 99.2 | inactive |
| CNGA2 (cyclic nucleotide gated channel subunit alpha 2) | 3 | -0.23 | 77.3 | -0.347 | 94.7 | inactive |
| TUBGCP2 (tubulin gamma complex component 2) | 1 | 0.0466 | 82.8 | 0.942 | 72.2 | inactive |
| TUBGCP2 (tubulin gamma complex component 2) | 2 | 0.47 | 91.2 | 1.36 | 71.2 | inactive |
| TUBGCP2 (tubulin gamma complex component 2) | 3 | -0.587 | 70.2 | -0.607 | 92 | inactive |
| NMRK1 (nicotinamide riboside kinase 1) | 1 | 4.26 | 167 | 3.61 | 72 | active |
| NMRK1 (nicotinamide riboside kinase 1) | 2 | -0.121 | 79.5 | -0.258 | 95.1 | inactive |
| NMRK1 (nicotinamide riboside kinase 1) | 3 | -1.4 | 54 | -1.31 | 85.2 | inactive |

Laid out differently: results already given.
DOP1B (DOP1 leucine zipper like protein B) #1
- total luciferase, z-score: 0.644
- total luciferase, % of control: 94.7
- luciferase per cell, z-score: 0.0831
- viable cells, % of control: 104
- outcome: inactive

DOP1B (DOP1 leucine zipper like protein B) #2
- total luciferase, z-score: 0.162
- total luciferase, % of control: 85.1
- luciferase per cell, z-score: 0.952
- viable cells, % of control: 74
- outcome: inactive

DOP1B (DOP1 leucine zipper like protein B) #3
- total luciferase, z-score: -0.515
- total luciferase, % of control: 71.6
- luciferase per cell, z-score: -0.88
- viable cells, % of control: 101
- outcome: inactive

RBM4B (RNA binding motif protein 4B) #1
- total luciferase, z-score: 0.0375
- total luciferase, % of control: 82.6
- luciferase per cell, z-score: 0.541
- viable cells, % of control: 80.1
- outcome: inactive

RBM4B (RNA binding motif protein 4B) #2
- total luciferase, z-score: -0.271
- total luciferase, % of control: 76.5
- luciferase per cell, z-score: 0.00957
- viable cells, % of control: 85.3
- outcome: inactive
